Results published in US12618835B2 (Kansas State University Research Foundation, priority 2021, dated 2026).

Assay: general procedure: Fmoc solid-phase peptide synthesis; H-Ala-2-chlorotrityl resin (1% DVB, 100-200 mesh); HBTU/DIPEA; HATU for ferrocene coupling
Conditions: late stage modification step

H2N-(CH2)4-CO-Pro-Leu-Ala-Phe-Val-Ala-NH-CH2-Fc (PLAFVA; N-terminal aminopentanoyl; C-terminal aminomethylferrocene; Synthetic substrate peptide)
step yield: 86% yield
